Earlier results in US7030118B2, “Pyrrolotriazinone compounds and their use to treat diseases” (Bristol-Myers Squibb Company, priority 2002, dated 2006).
At least one structure is not confirmed: it was looked up by name or label, or the drawing left a doubt.

Test system: Eg5
Details: in vitro assay

CCOC(=O)C1=C(C)NC(=S)NC1c1cccc(O)c1 (stereo not shown) [monastrol]
Eg5 motor-driven motility of microtubules: inhibit
